{"sequences": {"note": "Amino acid sequences for entries named in this document (tags omitted). A change or cut given only in a name is not applied to a line headed by its entry.", "UniProt P03156": "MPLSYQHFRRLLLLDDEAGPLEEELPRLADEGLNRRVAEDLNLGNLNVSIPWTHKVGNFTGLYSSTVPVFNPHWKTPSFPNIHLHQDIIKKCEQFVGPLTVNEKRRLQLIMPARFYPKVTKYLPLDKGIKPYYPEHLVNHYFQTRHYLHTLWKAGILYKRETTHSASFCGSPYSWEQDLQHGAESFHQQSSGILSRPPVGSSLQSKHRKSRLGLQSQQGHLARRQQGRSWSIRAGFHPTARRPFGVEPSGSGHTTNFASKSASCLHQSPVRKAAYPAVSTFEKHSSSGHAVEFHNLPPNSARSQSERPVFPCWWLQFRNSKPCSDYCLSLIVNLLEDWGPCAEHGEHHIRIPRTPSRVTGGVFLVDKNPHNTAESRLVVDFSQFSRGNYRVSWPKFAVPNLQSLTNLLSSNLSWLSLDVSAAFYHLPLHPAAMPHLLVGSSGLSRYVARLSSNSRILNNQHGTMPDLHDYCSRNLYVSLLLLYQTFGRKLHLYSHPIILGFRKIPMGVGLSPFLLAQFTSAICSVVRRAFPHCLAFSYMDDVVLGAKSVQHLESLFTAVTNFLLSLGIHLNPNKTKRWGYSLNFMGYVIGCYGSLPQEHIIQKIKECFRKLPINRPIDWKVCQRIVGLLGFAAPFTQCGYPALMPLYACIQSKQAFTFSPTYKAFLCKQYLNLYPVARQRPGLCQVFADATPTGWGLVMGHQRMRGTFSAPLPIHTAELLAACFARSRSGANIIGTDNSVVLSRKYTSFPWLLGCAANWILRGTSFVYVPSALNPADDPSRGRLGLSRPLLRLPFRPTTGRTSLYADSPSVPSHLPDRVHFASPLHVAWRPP"}, "source": "patent EP0338042B1", "about": "“COMPOSITION AND METHOD FOR TREATING HEPATITIS VIRUS INFECTIONS USING 1-(2'-DEOXY-2'-FLUORO-BETA-D-ARABINOFURANOSYL)-5-ETHYLURACIL” (priority 1987, dated 1989)", "biological_target": "T1, HBV DNA polymerase (Hepatitis B virus genotype D subtype ayw, UniProt P03156)", "T1 construct": "from tissue; host or cells: serum of an immunosuppressed, HBsAg-positive patient; virions purified on sucrose and CsCl gradients", "test": "Time course of DNA synthesis with triphosphate analogs in place of the natural substrate", "format": "biochemical", "conditions": "for viral DNA synthesis, % of the control: analog substituted for natural substrate (BVdUTP for dTTP, FIACTP for dCTP), after 3 hours, [3H] dATP label", "method": "DNA polymerase was assayed as described by Kaplan et al., J. Virol. 12: 995 (1973) with minor modification. The assay was performed in a 50 µl reaction mixture containing 50 mM Tris-HCl pH 7.5, 40 mM MgCl₂, 60 mM NH₄Cl, 100 µM each dATP, dCTP and dGTP, 0.2-0.7 µM [³H] dTTP (30 Ci/mmol), 10 mM 2-mercaptoethanol, 0.5% Nonidet P-40 and enzyme. The reaction was started by addition of the virus particles with 2-mercaptoethanol and Nonidet P 40. Incubation was at 37°C for 1 hour. Acid insoluble radioactive material was collected on a glass fiber filter (GF/C Whatman). Filters were washed 5 times with cold 5% trichloracetic acid containing 10 mM sodium pyrophosphate, then with 95% ethanol. Radioactivity of the dried filter was measured in a liquid scintillation counter.\nTo determine the effect of the three analogs on viral DNA synthesis, a time course experiment was performed with HBV DNA polymerase. [³H] dATP was used as the labeled substrate. With all four nucleoside triphosphate substrates, the reaction was linear up to 60 mn. […] The substitution of dTTP by BVdUTP permitted the viral DNA synthesis up to 46% of the control after 3 hours of reaction. This value increased to 67% of the optimal activity after 4 h of reaction.\nBVdUTP was the most efficient alternate substrate for both enzymes. The DNA synthesized with BVdUTP as alternate substrate was analyzed by agarose gel electrophoresis. Only incomplete filling of the single-stranded region of HBV or WHV DNA was obtained with BVdUTP.\nThe effect of ACVTP on HBV DNA synthesis was also studied in a time course experiment. [³H] dTTP was the labeled substrate. The reaction was initiated without dGTP or with 5 µm ACVTP instead of dGTP. Under these conditions, no incorporation of [³H] dTMP could be measured. After 120 minutes of reaction, 100 µM of dGTP was added. In the assay without dGTP only, the addition of dGTP increased DNA synthesis as expected. […] By comparison, when the reaction was started with the same proportion of ACVTP (5 µM) and dGTP (100 µM) a significant DNA synthesis was observed. […]", "note": "The name of at least one read-out is uncertain.", "data": [{"smiles": "O=c1[nH]c(=O)n([C@H]2C[C@H](O)[C@@H](COP(=O)(O)OP(=O)(O)OP(=O)(O)O)O2)cc1/C=C/Br", "note": "[BVdUTP]", "values": [{"measurement": "viral DNA synthesis, % of the optimal activity", "setting": "BVdUTP substituted for dTTP, after 4 h of reaction", "value": 67, "unit": "%"}, {"measurement": "viral DNA synthesis, % of the control", "value": 46, "unit": "%"}]}, {"smiles": "Nc1nc(=O)n([C@@H]2O[C@H](COP(=O)(O)OP(=O)(O)OP(=O)(O)O)[C@@H](O)[C@@H]2F)cc1I", "note": "[FIACTP]", "values": [{"measurement": "viral DNA synthesis, % of the control", "value": "about 10%"}]}]}
